Results taken from PubChem BioAssay AID1347076 (National Center for Advancing Translational Sciences (NCATS), 2019).
The whole screen tested about 400,000 compounds, of which about 13,000 (3.2%) were called active. Inconclusive results, whose numbers are uncertain, are shown with a selection of clear calls. Calls follow the shape of the dose curve; as a rule, active = well fitted cell-killing curve with a large enough effect; inconclusive = small, poorly fitted or top-dose-only effect, or effect the other way; inactive = flat fitted curve, though single readings scatter. Where the call is inconclusive, the potency comes from a doubtful curve fit.

Assay: qHTS assay for MDR1-selective chemotherapeutics: Primary screen using the drug-selected MDR subline cells KB-V1; also: nearly all actives have a fitted effect of over 60% in size
Details: KB-V1 MDR cells viability, CellTiter-Glo, 72 h; activity change, negative = cytotoxicity: at 46.1 µM (top of the series)
In short: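 In this primary screen, KB-V1 cells overexpressing P-gp are incubated with library compounds (lowest to highest concentration) for 72 h at 37 degrees C before a luminescent ATP viability read.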
% is scaled to controls: 0 for no effect and ±100 for the full control effect; potency is read from the fitted curve at half-maximal effect.

SMILES	activity change, negative = cytotoxicity	Potency
OCCCNC(=S)Nc1ccc(Oc2ccccc2)cc1	inactive: -5.48%	–
COc1cc(NC(=O)c2cc3c(s2)-c2ccccc2OC3)cc(OC)c1OC	–	inconclusive: 29.1 µM [cytotoxic, single point]
Cc1cccc(C)c1-n1nnnc1C1c2ccccc2C(=O)N1CCCn1ccnc1 (stereo not given)	inactive: -8.44%	–
COc1ccc(C(=O)/C=C/Nc2cccc(C)n2)cc1OC	–	inconclusive: 23.1 µM [cytotoxic, single point]
CCN(CC)CCOc1ccc(Br)cc1	inactive: 5.25%	–
Clc1ccc(-c2csc3ncnc(N4CCc5ccccc5C4)c23)cc1	–	active: 16.4 µM
Cc1ccc(C(C)(C)NC(=O)C2CCC(=O)N(Cc3ccccc3F)C2)cc1 (stereo not given)	–	inconclusive: 29.1 µM [cytotoxic, partial curve, poor fit]
CC(C)(C)C(=O)NCc1ccc(C(=O)CSc2nnc3n2CCCCC3)s1	inactive: 25%	–
CCN(CC)c1ccc(/C=N/NC(=O)c2c[nH]c3ccccc23)cc1	inactive: 2.22%	–
Nc1nc2c(ncn2[C@@H]2O[C@H](CNCc3ccc(OCCCN4CCOCC4)cc3)[C@@H](O)[C@H]2O)c(=O)[nH]1	inactive: 6.4%	–
CCC1C(=O)Nc2ccccc2N1C(=O)COc1ccccc1 (stereo not given)	–	inconclusive: 4.11 µM [rising, full curve, poor fit]
O=S(=O)(/N=C(/c1ccccc1)N1CCCCC1)c1ccccc1	–	inconclusive: 20.6 µM [cytotoxic, partial curve, poor fit]
COc1ccc(S(=O)(=O)N2CCC(C(=O)NC3(C)CCS(=O)(=O)C3)CC2)cc1OC (stereo not given)	–	inconclusive: 16.4 µM [rising, single point]
NNC(=O)c1cc2c(s1)-c1cc(Cl)ccc1SC2	inactive: -21%	–
O=C(c1cc(F)ccc1F)C1CCCN(C(=O)c2ccc3nccnc3c2)C1 (stereo not given)	–	inconclusive: 0.146 µM [cytotoxic, full curve]
Cc1cc(C)c(C)c(S(=O)(=O)N2CCC(C(=O)N(C)Cc3nc4ccccc4c(=O)[nH]3)CC2)c1C	–	active: 23.1 µM
Cc1ccc(-n2c3c(cc(-c4nc(-c5ccc(Cl)cc5)cs4)c2=O)C(=O)CC(C)(C)C3)cc1C	–	inconclusive: 4.11 µM [rising, full curve, poor fit]
COc1ccc(CCNc2ccc(C(=O)O)cc2[N+](=O)[O-])cc1OC	–	inconclusive: 20.6 µM [rising, single point]
CCOC(=O)c1c(C)oc2c1c(C=NCC1CCCO1)c(O)c1ccccc12 (stereo not given)	–	inconclusive: 14.6 µM [cytotoxic, partial curve, poor fit]
O=C(COc1ccc(/C=N/NC(=O)c2ccccc2)cc1)Nc1ccc([N+](=O)[O-])cc1	inactive: -0.393%	–
COc1cccc(-c2cc3onc(-c4ccccc4)c3c(=O)n2C)c1	inactive: 4.7%	–
COc1ccc(NC(=O)C2CCCN(c3ncnc4c3nc3n4CCCCC3)C2)c(OC)c1 (stereo not given)	inactive: -13.1%	–
COc1cc(/C=C/C(=O)O)cc(S(=O)(=O)Nc2ccc3c(c2)CCC3)c1OC	inactive: 12.3%	–
NNC(=O)c1nc[nH]c1C(=O)Nc1ccccc1	inactive: 17.5%	–
CN(C)CCC=C1c2ccccc2CCc2ccccc21	–	active: 20.6 µM

SMILES	activity change, negative = cytotoxicity	Potency
FC(F)(F)c1ccc(Cl)c(Nc2nnc(-c3ccncc3)s2)c1	inactive: 10.6%	–
N#CC1(NC(=O)CN2c3cccc4cccc(c34)S2(=O)=O)CCCCC1	–	inconclusive: 20.6 µM [cytotoxic, partial curve, poor fit]
O=C(CNS(=O)(=O)c1ccccc1)NCC(=O)OCc1ccc(Br)cc1	inactive: 1.79%	–
COc1cc(NC(=O)c2cccc(S(=O)(=O)N3CCCCC3)c2)cc(OC)c1OC	–	inconclusive: 29.1 µM [cytotoxic, single point]
CCCn1cc(SCC(=O)NCc2ccco2)c2ccccc21	–	inconclusive: 11.6 µM [cytotoxic, partial curve]
CCc1ccccc1OCCOc1ccc(C)cc1OC	inactive: 2.6%	–
CN(C)S(=O)(=O)Oc1cccc(C(=O)Nc2cccc(Cl)c2)c1	–	inconclusive: 18.4 µM [cytotoxic, single point]
Cc1cc(CSc2ccccc2)ccc1NC(=O)c1ccc(CN2CCOCC2)cc1	–	inconclusive: 2.31 µM [cytotoxic, partial curve, poor fit]
COc1cccc(/C=N/NC(=O)C(C)n2nc(C)c([N+](=O)[O-])c2C)c1O (stereo not given)	–	inconclusive: 8.2 µM [cytotoxic, partial curve]
Clc1ccc2nc(-c3ccccc3)c(CN3CCOCC3)n2c1	–	inconclusive: 23.1 µM [cytotoxic, partial curve]
Cc1cc(C)nc(/N=C(\N)Nc2ccc(OCCC(C)C)cc2)n1	–	inconclusive: 20.6 µM [cytotoxic, single point]
COC(=O)C1=CN(c2cccc(OCc3ccccc3)c2)C(N)=C(C#N)C1c1ccccc1 (stereo not given)	–	inconclusive: 9.2 µM [cytotoxic, partial curve, poor fit]
CCn1c(SCC(=O)N2CCN(c3ccccc3)CC2)nnc1-c1c[nH]c2ccccc12	inactive: -2.89%	–
CCCc1ccc(Oc2coc3cc(OCC(=O)Nc4ccccc4C)ccc3c2=O)cc1	inactive: 0%	–
Cc1ccc(S(=O)(=O)CC2CSc3nc(N)cc(=O)n32)cc1 (stereo not given)	inactive: 17.8%	–
C[C@H](C(=O)CC(=O)OC(C)(C)C)[C@H](O)c1ccc(C(F)(F)F)cc1	–	inconclusive: 20.6 µM [rising, single point]
Cc1ccccc1CS(=O)(=O)CC1(O)CCN(C(=O)c2cccc(C(F)(F)F)c2)CC1	–	active: 14.6 µM
CCCNC(=O)C1(C)CCCN(Cc2ccccc2N(C)C)C1 (stereo not given)	inactive: 2.27%	–
Cc1c(C)c2ccc(OCC(=O)NC3CCN(Cc4ccccc4)CC3)c(C)c2oc1=O	inactive: -10.4%	–
CC1=CC(C)C2C(=O)N(CCCN(C)C)C(=O)C2C1 (stereo not given)	–	inconclusive: 20.6 µM [rising, partial curve, poor fit]
Cc1cccc(N2CCN(C(=O)COc3cc4oc(=O)cc(C)c4cc3Cl)CC2)c1C	inactive: 3.41%	–
Cc1ccc2c(C)nc(Nc3nc(CSc4nc5ccccc5[nH]4)cc(=O)[nH]3)nc2c1	–	inconclusive: 20.6 µM [cytotoxic, partial curve]
O=c1cnn(-c2ccccc2)c(-c2ccccc2)c1	–	inconclusive: 20.6 µM [cytotoxic, single point]
CCN(CC)CCCNC(=O)CCn1nc(-c2ccccc2)ccc1=O	–	inconclusive: 16.4 µM [rising, single point]
Nc1c(C(=O)NCc2ccc(Cl)cc2)sc2nc3c(c(C(F)(F)F)c12)CCC3	–	active: 14.6 µM

SMILES	activity change, negative = cytotoxicity	Potency
COc1cc(/C=N/N=C2/NC(=O)C(Cc3ccc(F)cc3)S2)ccc1O (stereo not given)	–	inconclusive: 32.6 µM [cytotoxic, single point]
Cc1ccc(NC(=O)CSCC(=O)N=c2sccn2C)cc1	inactive: -11.2%	–
COc1ccc(-c2nnc(SCC(=O)Nc3cc(C)on3)o2)cc1	inactive: -14.3%	–
CCOC(=O)c1ccc(NC(=O)CCn2c(=O)c3cccn3c3cccnc32)cc1	inactive: -9.36%	–
COc1ccc(CNCCS(=O)(=O)NCc2ccccc2)cc1	–	inconclusive: 29.1 µM [rising, single point]
O=C(COc1ccccc1C(=O)Nc1cccc([N+](=O)[O-])c1)Nc1ccc(Br)cc1	–	inconclusive: 29.1 µM [cytotoxic, single point]
OCC(Cc1ccccc1)Nc1c2ccccc2nc2ccccc12 (stereo not given)	–	inconclusive: 11.6 µM [cytotoxic, partial curve]
CCC(CC)C(=O)c1c[nH]c(C(=O)NCCOC)c1	inactive: -4.39%	–
COc1ccc(S(=O)(=O)NCCNC(=O)N2CCOCC2)cc1	–	inconclusive: 20.6 µM [rising, single point]
Cn1nc(C(=O)OCC(=O)Nc2ccc(F)cc2Cl)c2ccccc2c1=O	–	inconclusive: 20.6 µM [rising, single point]
O=C(NCCCN1CCN(c2ccc(F)cc2)CC1)c1cnn(-c2ccc(F)cc2)c1-n1cccc1	–	active: 18.4 µM
O=C(NCc1ccc(F)cc1)c1cccnc1C(=O)O	inactive: 10.7%	–
O=C(CCN1C(=O)/C(=C/c2ccccc2Cl)SC1=S)NNC(=O)c1cccnc1	inactive: 0%	–
O=C(NC(=S)NC1CCCc2ccccc21)c1ccco1 (stereo not given)	inactive: 3.14%	–
O=C(Nc1ccc(NC(=O)C2CCCCC2)nc1)c1cccc(F)c1	–	inconclusive: 29.1 µM [rising, single point]
CCOc1ccccc1NC(=O)c1cc(C(=O)c2cc(Br)ccc2O)coc1=N	–	inconclusive: 20.6 µM [cytotoxic, single point]
CCCNC(=O)NC(=O)CSc1nc2ccccc2n1CC(C)C	–	inconclusive: 9.2 µM [cytotoxic, partial curve, poor fit]
CCOC(=O)c1ccccc1NC(=O)CSc1nc2ccccc2c(=O)[nH]1	–	inconclusive: 11.6 µM [cytotoxic, partial curve]
CC1CCN(CCC(=O)Nc2ccc(Br)cc2)CC1	inactive: -12.1%	–
Cc1ncoc1C(=O)N1CCCC(C(=O)c2cccc3ccccc23)C1 (stereo not given)	–	inconclusive: 9.2 µM [cytotoxic, partial curve]
Cn1c(C(C#N)C(=O)c2sc3ccccc3c2Cl)nc2ccccc21 (stereo not given)	–	inconclusive: 18.4 µM [cytotoxic, single point]
O=C(CCc1nc2ccccc2[nH]1)Nc1ccc(F)cc1	–	active: 11.6 µM
Cc1ccc(S(=O)(=O)NC2CCSC2=O)cc1C (stereo not given)	inactive: 12.4%	–
CCOc1ccc2[nH]c(=O)c(CN(Cc3ccc(C)cc3)C(=O)N3CCCC3)cc2c1	–	inconclusive: 18.4 µM [cytotoxic, partial curve, poor fit]
CCC12CCC3c4ccc(O)cc4CCC3C1CC(O)C2O (stereo not given)	inactive: -7.02%	–

Record cards, from the list above:
`O=C(CCc1nc2ccccc2[nH]1)Nc1ccc(F)cc1` as listed: Potency: active: 11.6 µM
`CCOC(=O)c1ccccc1NC(=O)CSc1nc2ccccc2c(=O)[nH]1` as listed: Potency: inconclusive: 11.6 µM [cytotoxic, partial curve]

4 compounds drawn at random from those above:
SMILES	activity change, negative = cytotoxicity	Potency
CCOC(=O)c1ccccc1NC(=O)CSc1nc2ccccc2c(=O)[nH]1	–	inconclusive: 11.6 µM [cytotoxic, partial curve]
O=C(Nc1ccc(NC(=O)C2CCCCC2)nc1)c1cccc(F)c1	–	inconclusive: 29.1 µM [rising, single point]
O=C(NCc1ccc(F)cc1)c1cccnc1C(=O)O	inactive: 10.7%	–
O=C(NC(=S)NC1CCCc2ccccc21)c1ccco1 (stereo not given)	inactive: 3.14%	–
